By UniProt entry, the sequences of proteins in these tests, tags left out.
UniProt P51531: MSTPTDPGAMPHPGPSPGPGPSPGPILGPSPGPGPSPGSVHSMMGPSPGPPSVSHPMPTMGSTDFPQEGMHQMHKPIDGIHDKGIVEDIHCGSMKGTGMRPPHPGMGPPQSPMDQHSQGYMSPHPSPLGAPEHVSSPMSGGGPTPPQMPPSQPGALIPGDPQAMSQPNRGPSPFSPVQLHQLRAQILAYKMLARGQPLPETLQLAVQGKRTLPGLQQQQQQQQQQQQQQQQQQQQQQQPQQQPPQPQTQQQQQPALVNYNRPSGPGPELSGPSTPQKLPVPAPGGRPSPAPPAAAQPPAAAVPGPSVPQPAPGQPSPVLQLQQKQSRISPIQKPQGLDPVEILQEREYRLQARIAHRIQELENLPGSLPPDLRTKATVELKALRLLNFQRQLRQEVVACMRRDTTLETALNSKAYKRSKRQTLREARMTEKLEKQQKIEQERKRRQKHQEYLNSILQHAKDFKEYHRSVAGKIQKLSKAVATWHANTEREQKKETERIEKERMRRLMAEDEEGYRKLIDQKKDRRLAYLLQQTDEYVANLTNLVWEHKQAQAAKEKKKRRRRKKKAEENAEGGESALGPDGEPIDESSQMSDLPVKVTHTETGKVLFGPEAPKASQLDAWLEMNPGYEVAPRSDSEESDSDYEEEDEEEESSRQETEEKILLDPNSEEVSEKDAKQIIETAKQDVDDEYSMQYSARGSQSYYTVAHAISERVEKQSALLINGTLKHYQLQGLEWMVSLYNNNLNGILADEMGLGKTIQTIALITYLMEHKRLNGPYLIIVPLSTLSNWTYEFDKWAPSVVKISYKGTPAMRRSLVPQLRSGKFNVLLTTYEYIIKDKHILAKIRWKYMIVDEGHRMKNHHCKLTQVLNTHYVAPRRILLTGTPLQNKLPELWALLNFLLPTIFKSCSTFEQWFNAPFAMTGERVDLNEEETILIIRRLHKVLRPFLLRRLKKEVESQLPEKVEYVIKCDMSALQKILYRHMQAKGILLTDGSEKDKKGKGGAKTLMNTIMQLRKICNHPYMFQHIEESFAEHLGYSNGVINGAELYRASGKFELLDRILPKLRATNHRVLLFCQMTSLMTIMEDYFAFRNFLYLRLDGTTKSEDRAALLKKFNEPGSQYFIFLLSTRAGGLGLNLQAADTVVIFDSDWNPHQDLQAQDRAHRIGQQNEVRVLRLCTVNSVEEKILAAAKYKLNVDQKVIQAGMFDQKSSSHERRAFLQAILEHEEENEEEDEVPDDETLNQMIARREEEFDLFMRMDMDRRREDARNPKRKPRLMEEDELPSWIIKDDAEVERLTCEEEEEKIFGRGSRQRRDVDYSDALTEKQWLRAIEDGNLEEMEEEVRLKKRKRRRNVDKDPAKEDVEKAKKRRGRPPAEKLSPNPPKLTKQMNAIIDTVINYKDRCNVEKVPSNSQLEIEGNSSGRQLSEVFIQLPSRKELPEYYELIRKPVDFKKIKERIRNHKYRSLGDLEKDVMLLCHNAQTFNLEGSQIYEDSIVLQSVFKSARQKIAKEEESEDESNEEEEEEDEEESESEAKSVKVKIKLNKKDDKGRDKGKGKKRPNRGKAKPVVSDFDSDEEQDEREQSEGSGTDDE
UniProt P51532: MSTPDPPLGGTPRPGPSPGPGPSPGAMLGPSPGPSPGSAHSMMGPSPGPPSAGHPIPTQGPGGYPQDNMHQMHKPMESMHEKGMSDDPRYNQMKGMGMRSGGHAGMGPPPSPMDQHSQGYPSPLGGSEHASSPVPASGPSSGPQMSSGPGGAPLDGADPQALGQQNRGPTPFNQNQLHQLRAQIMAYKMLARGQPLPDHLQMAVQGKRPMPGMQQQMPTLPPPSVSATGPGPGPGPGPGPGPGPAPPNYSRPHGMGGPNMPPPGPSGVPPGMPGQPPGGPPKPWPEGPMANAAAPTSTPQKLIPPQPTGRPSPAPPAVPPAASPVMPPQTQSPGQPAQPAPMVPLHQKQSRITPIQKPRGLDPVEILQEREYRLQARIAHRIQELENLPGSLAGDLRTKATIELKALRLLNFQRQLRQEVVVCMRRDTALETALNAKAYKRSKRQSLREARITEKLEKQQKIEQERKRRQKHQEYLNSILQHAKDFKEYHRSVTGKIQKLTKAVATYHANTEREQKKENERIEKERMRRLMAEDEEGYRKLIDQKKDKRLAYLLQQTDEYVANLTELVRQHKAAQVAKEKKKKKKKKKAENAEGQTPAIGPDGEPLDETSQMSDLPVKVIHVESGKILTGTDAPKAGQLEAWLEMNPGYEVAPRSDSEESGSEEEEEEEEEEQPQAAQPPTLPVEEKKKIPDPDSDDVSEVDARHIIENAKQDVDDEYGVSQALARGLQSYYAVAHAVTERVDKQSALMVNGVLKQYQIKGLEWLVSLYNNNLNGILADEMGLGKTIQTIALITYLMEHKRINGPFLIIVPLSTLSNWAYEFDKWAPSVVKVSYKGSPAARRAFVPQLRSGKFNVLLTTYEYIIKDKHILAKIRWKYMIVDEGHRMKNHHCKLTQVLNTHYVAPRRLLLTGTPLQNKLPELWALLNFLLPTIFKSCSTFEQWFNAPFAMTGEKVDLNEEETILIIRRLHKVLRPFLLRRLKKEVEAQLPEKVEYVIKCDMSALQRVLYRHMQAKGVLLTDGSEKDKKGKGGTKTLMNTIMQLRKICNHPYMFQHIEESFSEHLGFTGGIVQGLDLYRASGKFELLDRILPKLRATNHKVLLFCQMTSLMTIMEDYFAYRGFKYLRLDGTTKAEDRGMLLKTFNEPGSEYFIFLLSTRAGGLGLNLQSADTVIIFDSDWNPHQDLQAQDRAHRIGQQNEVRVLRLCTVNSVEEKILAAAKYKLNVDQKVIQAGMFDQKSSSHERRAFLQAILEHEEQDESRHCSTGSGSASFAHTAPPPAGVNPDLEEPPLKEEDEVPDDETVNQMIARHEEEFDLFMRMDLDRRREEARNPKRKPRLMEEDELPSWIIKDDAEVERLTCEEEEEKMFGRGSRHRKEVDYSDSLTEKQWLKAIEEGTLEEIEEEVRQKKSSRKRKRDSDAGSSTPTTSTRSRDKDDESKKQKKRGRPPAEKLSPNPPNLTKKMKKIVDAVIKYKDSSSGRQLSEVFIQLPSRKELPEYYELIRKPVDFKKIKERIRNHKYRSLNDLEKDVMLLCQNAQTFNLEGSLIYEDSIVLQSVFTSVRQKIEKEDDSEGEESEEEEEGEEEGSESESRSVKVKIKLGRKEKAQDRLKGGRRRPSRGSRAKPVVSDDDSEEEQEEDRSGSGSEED
UniProt P46937: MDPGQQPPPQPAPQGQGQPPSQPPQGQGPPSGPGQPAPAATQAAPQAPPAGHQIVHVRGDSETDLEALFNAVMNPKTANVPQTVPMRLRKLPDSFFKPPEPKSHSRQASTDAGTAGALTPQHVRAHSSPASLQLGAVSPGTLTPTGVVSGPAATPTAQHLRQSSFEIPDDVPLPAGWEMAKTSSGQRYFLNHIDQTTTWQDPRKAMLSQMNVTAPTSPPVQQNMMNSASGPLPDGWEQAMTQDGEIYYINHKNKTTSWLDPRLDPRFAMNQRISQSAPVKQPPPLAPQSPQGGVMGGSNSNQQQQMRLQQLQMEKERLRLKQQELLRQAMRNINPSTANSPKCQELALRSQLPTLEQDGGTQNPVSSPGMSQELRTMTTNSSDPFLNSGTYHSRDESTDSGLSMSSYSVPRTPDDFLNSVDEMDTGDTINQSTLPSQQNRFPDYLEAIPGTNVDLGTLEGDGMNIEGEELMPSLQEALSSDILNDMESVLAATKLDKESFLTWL
UniProt O75376: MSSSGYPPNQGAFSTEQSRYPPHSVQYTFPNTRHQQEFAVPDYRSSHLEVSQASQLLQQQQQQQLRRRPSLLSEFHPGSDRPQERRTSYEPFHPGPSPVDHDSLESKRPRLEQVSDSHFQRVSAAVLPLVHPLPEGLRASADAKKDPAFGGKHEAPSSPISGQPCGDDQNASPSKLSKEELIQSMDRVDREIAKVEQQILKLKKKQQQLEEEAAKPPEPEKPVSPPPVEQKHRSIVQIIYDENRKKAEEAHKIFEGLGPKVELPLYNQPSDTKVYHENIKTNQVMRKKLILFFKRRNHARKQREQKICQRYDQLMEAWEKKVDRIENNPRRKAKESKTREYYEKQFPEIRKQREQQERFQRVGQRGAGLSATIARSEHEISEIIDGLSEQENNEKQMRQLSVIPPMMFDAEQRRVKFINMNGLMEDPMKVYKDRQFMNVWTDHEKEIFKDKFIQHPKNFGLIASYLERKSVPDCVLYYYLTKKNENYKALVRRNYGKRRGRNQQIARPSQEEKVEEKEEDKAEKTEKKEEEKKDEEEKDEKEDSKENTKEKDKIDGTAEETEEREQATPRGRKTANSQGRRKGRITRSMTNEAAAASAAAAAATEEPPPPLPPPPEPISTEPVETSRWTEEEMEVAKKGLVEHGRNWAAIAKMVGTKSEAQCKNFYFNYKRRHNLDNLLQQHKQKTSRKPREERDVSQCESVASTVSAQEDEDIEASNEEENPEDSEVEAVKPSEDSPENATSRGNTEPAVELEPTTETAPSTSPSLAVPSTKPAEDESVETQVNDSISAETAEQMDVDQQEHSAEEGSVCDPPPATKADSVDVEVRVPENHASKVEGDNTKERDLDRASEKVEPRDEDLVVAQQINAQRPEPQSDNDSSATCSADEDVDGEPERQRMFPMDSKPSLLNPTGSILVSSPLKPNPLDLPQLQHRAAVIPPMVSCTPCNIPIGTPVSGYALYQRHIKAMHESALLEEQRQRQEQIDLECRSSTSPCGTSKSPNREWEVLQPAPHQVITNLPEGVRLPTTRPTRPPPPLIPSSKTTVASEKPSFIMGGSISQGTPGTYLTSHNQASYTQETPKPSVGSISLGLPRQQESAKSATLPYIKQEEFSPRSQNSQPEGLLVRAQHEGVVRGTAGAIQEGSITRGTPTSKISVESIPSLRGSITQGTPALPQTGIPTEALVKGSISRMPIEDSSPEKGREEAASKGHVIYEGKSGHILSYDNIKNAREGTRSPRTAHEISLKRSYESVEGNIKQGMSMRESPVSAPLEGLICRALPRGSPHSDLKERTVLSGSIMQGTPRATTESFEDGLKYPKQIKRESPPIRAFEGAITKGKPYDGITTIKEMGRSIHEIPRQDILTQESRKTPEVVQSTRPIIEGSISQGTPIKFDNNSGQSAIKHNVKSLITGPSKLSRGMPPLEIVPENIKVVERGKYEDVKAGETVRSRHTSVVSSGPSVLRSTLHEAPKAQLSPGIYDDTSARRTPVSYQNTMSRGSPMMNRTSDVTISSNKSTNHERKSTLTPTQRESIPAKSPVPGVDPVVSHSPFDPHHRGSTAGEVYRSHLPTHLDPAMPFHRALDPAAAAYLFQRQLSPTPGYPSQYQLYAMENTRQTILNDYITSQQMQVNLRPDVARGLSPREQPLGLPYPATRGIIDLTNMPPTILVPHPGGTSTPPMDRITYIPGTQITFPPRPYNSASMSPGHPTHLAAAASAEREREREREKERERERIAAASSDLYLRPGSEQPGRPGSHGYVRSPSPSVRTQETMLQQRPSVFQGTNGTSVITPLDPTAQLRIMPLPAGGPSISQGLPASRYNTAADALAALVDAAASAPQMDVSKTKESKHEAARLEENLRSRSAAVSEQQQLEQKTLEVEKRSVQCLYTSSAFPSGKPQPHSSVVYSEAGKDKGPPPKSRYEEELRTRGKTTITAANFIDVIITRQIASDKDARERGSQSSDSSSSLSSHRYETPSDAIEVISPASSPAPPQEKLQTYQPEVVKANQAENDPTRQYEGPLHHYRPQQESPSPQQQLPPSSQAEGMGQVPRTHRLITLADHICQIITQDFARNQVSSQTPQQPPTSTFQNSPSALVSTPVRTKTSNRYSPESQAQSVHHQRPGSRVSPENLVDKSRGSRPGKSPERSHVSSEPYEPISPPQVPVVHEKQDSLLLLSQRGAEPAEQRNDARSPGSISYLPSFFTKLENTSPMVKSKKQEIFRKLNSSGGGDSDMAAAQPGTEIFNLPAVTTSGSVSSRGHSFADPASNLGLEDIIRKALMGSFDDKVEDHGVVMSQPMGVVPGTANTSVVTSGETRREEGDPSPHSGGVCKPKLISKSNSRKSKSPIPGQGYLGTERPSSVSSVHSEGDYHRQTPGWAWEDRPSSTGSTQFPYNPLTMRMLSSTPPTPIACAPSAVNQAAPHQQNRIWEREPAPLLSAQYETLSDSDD

In paper PMC11480203:

T1: BirA*-Flag-JUN WT, P05412
T1 chain: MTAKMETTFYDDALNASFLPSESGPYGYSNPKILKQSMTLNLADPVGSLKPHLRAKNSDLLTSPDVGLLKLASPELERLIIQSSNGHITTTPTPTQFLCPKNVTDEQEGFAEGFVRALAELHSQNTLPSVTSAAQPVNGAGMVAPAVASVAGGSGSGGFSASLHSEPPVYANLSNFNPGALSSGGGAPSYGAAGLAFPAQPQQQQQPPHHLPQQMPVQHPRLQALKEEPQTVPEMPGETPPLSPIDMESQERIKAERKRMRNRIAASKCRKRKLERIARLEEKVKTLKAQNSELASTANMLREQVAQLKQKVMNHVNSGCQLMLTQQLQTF


What was measured:
Test in all cases: proximity labelling; BioID: BirA*-JUN fusion proteins stably expressed in MCF10A JUN knockout cells, 50 uM biotin for 18 h; biotinylated proteins captured on streptavidin Sepharose, DIA mass spectrometry; compared with the NLS-Flag-BirA* control
BirA*-Flag-JUN WT = BirA*-Flag-JUN WT (UniProt P05412)
JUN WT-BirA*-Flag = JUN WT-BirA*-Flag (UniProt P05412)
[1] = target: T1, BirA*-Flag-JUN WT, P05412; conditions: remark: other sources report otherwise

| Molecule | binding (BirA*-Flag-JUN WT) | binding (JUN WT-BirA*-Flag) | binding [1] |
| --- | --- | --- | --- |
| SMARCA2 (from UniProt P51531 1-1590) | binds | binds | – |
| SMARCA4 (from UniProt P51532 1-1647) | binds | binds | – |

Further lines, results first:

| binding (BirA*-Flag-JUN WT) | binding (JUN WT-BirA*-Flag) | binding [1] | Molecule |
| --- | --- | --- | --- |
| binds | – | – | Yes-associated protein (YAP) (from UniProt P46937 1-504) |
| binds | binds | – | NCOR1 (from UniProt O75376 1-2440) |
| – | – | binds | FOSB, P53539 1-338 (protein) MFQAFPGDYDSGSRCSSSPSAESQYLSSVDSFGSPPTAAASQECAGLGEMPGSFVPTVTAITTSQDLQWLVQPTLISSMAQSQGQPLASQPPVVDPYDMPGTSYSTPGMSGYSSGGASGSGGPSTSGTTSGPGPARPARARPRRPREETLTPEEEEKRRVRRERNKLAAAKCRNRRRELTDRLQAETDQLEEEKAELESEIAELQKEKERLEFVLVAHKPGCKIPYEEGPGPGPLAEVRDLPGSAPAKEDGFSWLLPPPPPPPLPFQTSQDAPPNLTASLFTHSEVQVLGDPFPVVNPSYTSSFVLTCPEVSAFAGAQRTSGSDQPSDPLNSPSLLAL |

Results are given in words; binding and its absence hold for the method and conditions named. In cells and extracts the contact can be indirect. These calls come from enrichment with a bait or labelling near it, and not all partners need be listed. For some assays here: Where a sequence is shown, tags or fusion partners need not be part of it.
